Data source: PubChem BioAssay AID686938 (Drosophila RNAi Screening Center, 2013)
The deposit covers about 23,000 reagents; below is an unselected part of those that have a named target and a result. Of all reagents, 75 (0.33%) are marked active. 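Raw plate signals without normalisation; calls rest on plate z-scores that were not deposited; ratio present for only 364 wells.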 A number with no mark means an inactive call. The numbers tell different reagents against one gene apart. Not stated in the record: the dose of the treatment.

Screen: 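Fly genes required for calcium entry once internal stores are emptied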 (primary screen)
System: Drosophila S2R+ cells
Reagents: long dsRNA against Drosophila genes, about 0.25 µg dsRNA per well, roughly 10,000 cells
Duration: 5 days of knock-down before the calcium assay
Conditions: thapsigargin (SERCA pump blocker) to empty calcium stores; entry signal taken 4 min after adding it
Detection: 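Duplicate raw fluo-4 intensities per well from a plate reader, at rest and four minutes after thapsigargin emptied calcium stores; entry-to-rest ratio filled for only some wells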
Scale: calcium entry signal: higher = stronger calcium signal after store depletion; resting calcium signal: higher = higher resting calcium signal
Units: calcium entry signal in fluorescence units; resting calcium signal in fluorescence units
Active means: 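Called when the plate z-score of the entry-to-rest ratio, mean of duplicates, falls below −3; wells with low overall dye signal (Fmax z below −2) or more than five off-targets excluded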
Meaning of the calls: active = strongly reduced calcium entry; inactive = no strong reduction

GalT1: calcium entry signal, replicate 1 = 3.18e7; calcium entry signal, replicate 2 = 4.25e7; resting calcium signal, replicate 1 = 1.53e7; resting calcium signal, replicate 2 = 2.12e7
CG31816: calcium entry signal, replicate 1 = 2.34e7; calcium entry signal, replicate 2 = 3.33e7; resting calcium signal, replicate 1 = 1.26e7; resting calcium signal, replicate 2 = 1.45e7
CG31677: calcium entry signal, replicate 1 = 2.46e7; calcium entry signal, replicate 2 = 4.52e7; resting calcium signal, replicate 1 = 1.22e7; resting calcium signal, replicate 2 = 2.08e7
Ucp4C: calcium entry signal, replicate 1 = 3.63e7; calcium entry signal, replicate 2 = 4.22e7; resting calcium signal, replicate 1 = 1.86e7; resting calcium signal, replicate 2 = 2.07e7

Next part; the last 2 above are carried over.
CG31677: calcium entry signal, replicate 1 = 2.46e7; calcium entry signal, replicate 2 = 4.52e7; resting calcium signal, replicate 1 = 1.22e7; resting calcium signal, replicate 2 = 2.08e7
Ucp4C: calcium entry signal, replicate 1 = 3.63e7; calcium entry signal, replicate 2 = 4.22e7; resting calcium signal, replicate 1 = 1.86e7; resting calcium signal, replicate 2 = 2.07e7
Rpn8: calcium entry signal, replicate 1 = 2.12e7; calcium entry signal, replicate 2 = 2.29e7; resting calcium signal, replicate 1 = 1.62e7; resting calcium signal, replicate 2 = 1.52e7
Pal2: calcium entry signal, replicate 1 = 3.63e7; calcium entry signal, replicate 2 = 4.53e7; resting calcium signal, replicate 1 = 1.78e7; resting calcium signal, replicate 2 = 2.01e7
ktub: calcium entry signal, replicate 1 = 3.70e7; resting calcium signal, replicate 1 = 1.93e7
ImpE1 #1: calcium entry signal, replicate 1 = 2.40e7; calcium entry signal, replicate 2 = 3.96e7; resting calcium signal, replicate 1 = 1.18e7; resting calcium signal, replicate 2 = 1.88e7
ImpE1 #2: calcium entry signal, replicate 1 = 2.53e7; calcium entry signal, replicate 2 = 2.92e7; resting calcium signal, replicate 1 = 1.18e7; resting calcium signal, replicate 2 = 1.40e7
Frq1: calcium entry signal, replicate 1 = 3.53e7; calcium entry signal, replicate 2 = 3.47e7; resting calcium signal, replicate 1 = 1.85e7; resting calcium signal, replicate 2 = 1.66e7
Agps: calcium entry signal, replicate 1 = 3.76e7; calcium entry signal, replicate 2 = 4.27e7; resting calcium signal, replicate 1 = 2.02e7; resting calcium signal, replicate 2 = 2.02e7
Max: calcium entry signal, replicate 1 = 3.97e7; calcium entry signal, replicate 2 = 4.33e7; resting calcium signal, replicate 1 = 1.83e7; resting calcium signal, replicate 2 = 2.79e7
CG6180: calcium entry signal, replicate 1 = 5.16e7; resting calcium signal, replicate 1 = 2.58e7
Galk: calcium entry signal, replicate 1 = 4.20e7; calcium entry signal, replicate 2 = 2.83e7; resting calcium signal, replicate 1 = 2.89e7; resting calcium signal, replicate 2 = 1.32e7
